Experimental data: the supplement of paper PMC5949888
Most values lie at the floor of the assay. Slopes are relative: functional sequences can read slightly below zero.

Test system: Saccharomyces cerevisiae PS128 hsf1 delta, HSF1(1-493) fusion
Assay: growth estimate (transactivation domain function in HSF1 fusion, heat-shock survival) (a.u. (slope of normalised read count over time)); higher = stronger growth at 37°C, i.e. more transactivation activity
Conditions: library: random library

How did the growth estimate turn out when LGSGAQKMAPP was run?
The growth estimate was -0.231.

For LGSGQVCRSKGGQWSGADSF, which growth estimate is on record?
Its growth estimate is under -0.25.

LGSGTRGVPRSVWTIHEVDP was tested. Which growth estimate did it give?
Its growth estimate is under -0.25.

Which growth estimate does the source give for LGSHMRPKGSANPG here?
The growth estimate was under -0.25.

Which growth estimate does the source give for LGSKGVR here?
Its growth estimate is under -0.25.

LGSLDTYLGLAGAERLKLPF was tested. Which growth estimate did it give?
Its growth estimate is under -0.25.

For LGSLKHS, which growth estimate is on record?
Its growth estimate is under -0.25.

For LGSNWPGTDCRGWYIRLY, which growth estimate is on record?
The growth estimate was under -0.25.

How did the growth estimate turn out when LGSSLLEAASTTPSNRY was run?
The growth estimate was under -0.25.

With LGSVFGPQAVYQ as the substance, how does the growth estimate read?
Its growth estimate is under -0.25.

For LGTENRTMFLLGLVAPFTAS, which growth estimate is on record?
The growth estimate was under -0.25.

With LGTKAILMG as the substance, how does the growth estimate read?
Its growth estimate is under -0.25.

Which growth estimate does the source give for LGTNCVS here?
The growth estimate was -0.245.

For LGTSRFERIRRSGTRRPPWT, which growth estimate is on record?
The growth estimate was under -0.25.

How did the growth estimate turn out when LGTTMVQQRVR was run?
The growth estimate was under -0.25.

How did the growth estimate turn out when LGVGSFINSPGGALSLMKPK was run?
The growth estimate was under -0.25.

LGVHAAGERGQGSPDHLLGS was tested. Which growth estimate did it give?
Its growth estimate is under -0.25.

How did the growth estimate turn out when LGVNFVSHEVGAGAAARPYH was run?
The growth estimate was under -0.25.

LGVSCEVTVSRDARVGLEWA was tested. Which growth estimate did it give?
The growth estimate was under -0.25.

How did the growth estimate turn out when LGVSKTLGLYILYWDQ was run?
The growth estimate was under -0.25.

For LGVSRAGACRDFK, which growth estimate is on record?
Its growth estimate is under -0.25.

Which growth estimate does the source give for LGWVTVQTISSAIGRKQAIP here?
The growth estimate was under -0.25.

For LGYDSRTRCVPWESILGWRL, which growth estimate is on record?
The growth estimate was under -0.25.

LGYRGGALTIFEK was tested. Which growth estimate did it give?
Its growth estimate is under -0.25.

LGYYEL was tested. Which growth estimate did it give?
Its growth estimate is -0.193.

Which growth estimate does the source give for LHDEGDWAGSAQPGLLEVAC here?
Its growth estimate is -0.245.

LHES was tested. Which growth estimate did it give?
Its growth estimate is under -0.25.

Which growth estimate does the source give for LHGDGTERADGIRFRLSSGT here?
The growth estimate was under -0.25.

Which growth estimate does the source give for LHGKWVHRDGPRLVQNPQSA here?
The growth estimate was under -0.25.

With LHGVCRAVRGGRVF as the substance, how does the growth estimate read?
The growth estimate was under -0.25.

Which growth estimate does the source give for LHHSTGRRGRVGETSTTHSQ here?
Its growth estimate is under -0.25.

How did the growth estimate turn out when LHKGSVGAGLWRAGRT was run?
Its growth estimate is under -0.25.

For LHLEKVGPRPSNGSACP, which growth estimate is on record?
The growth estimate was under -0.25.

LHLNS was tested. Which growth estimate did it give?
The growth estimate was under -0.25.

How did the growth estimate turn out when LHMDVTPRRLNGIWAEKWAR was run?
Its growth estimate is under -0.25.

How did the growth estimate turn out when LHPAKYSARASVRATDWNSR was run?
The growth estimate was under -0.25.

LHQSG was tested. Which growth estimate did it give?
Its growth estimate is under -0.25.

How did the growth estimate turn out when LHRASLA was run?
The growth estimate was under -0.25.

With LHRFETHYSAVRSRVSGMAS as the substance, how does the growth estimate read?
The growth estimate was under -0.25.

How did the growth estimate turn out when LHRNHGNPPAERGLLVSLFT was run?
Its growth estimate is under -0.25.

With LHRSFD as the substance, how does the growth estimate read?
The growth estimate was under -0.25.

For LHRWLNRLSFGHSCI, which growth estimate is on record?
The growth estimate was under -0.25.

Which growth estimate does the source give for LHSIAGSSG here?
The growth estimate was under -0.25.

Which growth estimate does the source give for LHSLTCGPVRLKTSSRAIIK here?
The growth estimate was under -0.25.

How did the growth estimate turn out when LHSPYTWDIHLYSPAGHLVQ was run?
Its growth estimate is under -0.25.

Which growth estimate does the source give for LHSRLGCTQRRRIPGSWAQS here?
The growth estimate was under -0.25.

LHSTCYQSED was tested. Which growth estimate did it give?
Its growth estimate is under -0.25.

How did the growth estimate turn out when LHSTKLAG was run?
The growth estimate was under -0.25.

Which growth estimate does the source give for LHTLLFPIRGRLPCGE here?
The growth estimate was -0.158.

How did the growth estimate turn out when LHTPMGGTSYIQGYMDEAGS was run?
The growth estimate was under -0.25.

With LHVFCFARVHAKQEQYAGVV as the substance, how does the growth estimate read?
The growth estimate was under -0.25.

LHVG was tested. Which growth estimate did it give?
Its growth estimate is under -0.25.

With LHVHPF as the substance, how does the growth estimate read?
Its growth estimate is under -0.25.

Which growth estimate does the source give for LHVKLWRLSRRIVITRGQSE here?
The growth estimate was under -0.25.

With LHVRALILVRGRCPFNYWPS as the substance, how does the growth estimate read?
The growth estimate was under -0.25.

LIAQTMLAPLTCRNGFQWLS was tested. Which growth estimate did it give?
The growth estimate was 0.0066.

For LIAREPTRILRPTASFSSHS, which growth estimate is on record?
The growth estimate was under -0.25.

How did the growth estimate turn out when LICGSFLTCQGQPSVNRWKD was run?
Its growth estimate is under -0.25.

For LICT, which growth estimate is on record?
The growth estimate was under -0.25.

LID was tested. Which growth estimate did it give?
Its growth estimate is under -0.25.

How did the growth estimate turn out when LIDDNES was run?
The growth estimate was under -0.25.

LIDVDATRTRRAIHGTAVPA was tested. Which growth estimate did it give?
The growth estimate was under -0.25.

LIDVPIRCQYAHASRGLFCA was tested. Which growth estimate did it give?
Its growth estimate is under -0.25.

For LIEGVRGQLAMR, which growth estimate is on record?
The growth estimate was under -0.25.

LIFQNGYA was tested. Which growth estimate did it give?
Its growth estimate is under -0.25.

Which growth estimate does the source give for LIFSRANVCAWPRFSYASRS here?
Its growth estimate is under -0.25.

How did the growth estimate turn out when LIFTFVARN was run?
The growth estimate was under -0.25.

With LIGDTRDEVVSALTSIVDGS as the substance, how does the growth estimate read?
The growth estimate was under -0.25.

Which growth estimate does the source give for LIGITSPGC here?
Its growth estimate is under -0.25.

With LIGL as the substance, how does the growth estimate read?
The growth estimate was under -0.25.

With LIGLSVNAHCLVQGVETAIR as the substance, how does the growth estimate read?
Its growth estimate is under -0.25.

Which growth estimate does the source give for LIGSSVRAS here?
The growth estimate was under -0.25.

Which growth estimate does the source give for LIHHVSARRFIGCDK here?
The growth estimate was under -0.25.

LIHLR was tested. Which growth estimate did it give?
The growth estimate was under -0.25.

With LIHQCFGCCVKPSYAWNASW as the substance, how does the growth estimate read?
Its growth estimate is under -0.25.

For LIIGPRRERE, which growth estimate is on record?
The growth estimate was under -0.25.

For LIKVGSNANQSATGFSQYYP, which growth estimate is on record?
The growth estimate was under -0.25.

How did the growth estimate turn out when LILCRRIDPRIRNDHSMAVH was run?
The growth estimate was under -0.25.

With LILLYSETR as the substance, how does the growth estimate read?
Its growth estimate is under -0.25.

Which growth estimate does the source give for LILSR here?
Its growth estimate is under -0.25.

Which growth estimate does the source give for LINALPGFV here?
Its growth estimate is under -0.25.

With LINLFQVVVLVPAFFCENQE as the substance, how does the growth estimate read?
Its growth estimate is under -0.25.

Which growth estimate does the source give for LIPAQGGAVGLYWTCSVSST here?
Its growth estimate is -0.198.

With LIPHAAKSVRVPRVRKL as the substance, how does the growth estimate read?
The growth estimate was under -0.25.

How did the growth estimate turn out when LIPV was run?
The growth estimate was under -0.25.

Which growth estimate does the source give for LIR here?
The growth estimate was under -0.25.

How did the growth estimate turn out when LIRAGVSCNLCYAWPDACPW was run?
The growth estimate was under -0.25.

With LIRGPH as the substance, how does the growth estimate read?
The growth estimate was -0.208.

Which growth estimate does the source give for LIRGQIGFRSR here?
The growth estimate was under -0.25.

Which growth estimate does the source give for LIRRRQSSVRNGSIRASSPI here?
Its growth estimate is under -0.25.

Which growth estimate does the source give for LIRSR here?
Its growth estimate is under -0.25.

LIRSSAGW was tested. Which growth estimate did it give?
The growth estimate was under -0.25.

For LIRSSRLMKHPIMQIGTEVT, which growth estimate is on record?
The growth estimate was under -0.25.

LIRVKEQGFCAA was tested. Which growth estimate did it give?
Its growth estimate is under -0.25.

Which growth estimate does the source give for LISLQQ here?
The growth estimate was under -0.25.

Which growth estimate does the source give for LISPDPIRAAAGPQVGSEVF here?
Its growth estimate is under -0.25.

With LISRLAREYHVQIAHGLSGL as the substance, how does the growth estimate read?
Its growth estimate is under -0.25.

Which growth estimate does the source give for LISVAALRLLARAHLVNSA here?
The growth estimate was under -0.25.

LISVTG was tested. Which growth estimate did it give?
Its growth estimate is under -0.25.

For LIVASNEP, which growth estimate is on record?
The growth estimate was under -0.25.
